In patent US20110172147A1 (priority 2009, published 2011):

Experiment: general procedure: Fmoc solid-phase peptide synthesis; Fmoc-Linker-BHA resin (Rink linker); Rink Amide Resin; HBTU and DIC preferred, with HOBt
Conditions: whole synthesis, scale 0.22 mmol, 1:2 TFA

Substance | isolated mass | isolated yield
Eicosanoyl-Glu-Glu-Ile-Lys[CH3—(OCH2CH2)23—O—(CH2)2—CO]-Pqa-Cit-His-Tyr-Leu-Asn-Trp-Val-Thr-Arg-Gln-(NMe)-Arg-Tyr-NH2 1:2 TFA | 49 mg | 6%
Eicosanoyl-gammaGlu-gammaGlu-Ile-Lys[CH3—(OCH2CH2)23—O—(CH2)2—CO]-Pqa-Cit-His-Tyr-Leu-Asn-Trp-Val-Thr-Arg-Gln-(NMe)-Arg-Tyr-NH2 1:2 TFA | 81 mg | 11%
Lauroyl-6Ahx-Ile-Lys[CH3—(OCH2CH2)23—O—(CH2)2—CO]-Pqa-Cit-His-Tyr-Leu-Asn-Trp-Val-Thr-Arg-Gln-(NMe)-Arg-Tyr-NH2 1:2 TFA | 63 mg | 9%
Myristoyl-6Ahx-Ile-Lys[CH3—(OCH2CH2)23—O—(CH2)2—CO]-Pqa-Cit-His-Tyr-Leu-Asn-Trp-Val-Thr-Arg-Gln-(NMe)-Arg-Tyr-NH2 1:2 TFA | 43 mg | 6%
Palmitoyl-6Ahx-Ile-Lys[CH3—(OCH2CH2)7—O—(CH2)2—CO]-Pqa-Cit-His-Tyr-Leu-Asn-Trp-Val-Thr-Arg-Gln-(NMe)-Arg-Tyr-NH2 1:2 TFA | 73 mg | 12%
Palmitoyl-6Ahx-Ile-Lys[CH3—(OCH2CH2)11—O—(CH2)2—CO]-Pqa-Cit-His-Tyr-Leu-Asn-Trp-Val-Thr-Arg-Gln-(NMe)-Arg-Tyr-NH2 1:2 TFA | 46 mg | 16%
Palmitoyl-6Ahx-Ile-Lys[CH3—(OCH2CH2)15—O—(CH2)2—CO]-Pqa-Cit-His-Tyr-Leu-Asn-Trp-Val-Thr-Arg-Gln-(NMe)-Arg-Tyr-NH2 1:2 TFA | 32 mg | 5%

Same assay, conditions: whole synthesis, scale 0.22 mmol, 1:3 TFA

Substance | isolated mass | isolated yield
Eicosanoyl-gammaGlu-gammaGlu-Ile-Lys[CH3—(OCH2CH2)11—O—(CH2)2—CO]-Pqa-Arg-His-Tyr-Leu-Asn-Trp-Val-Thr-Arg-Gln-(NMe)-Arg-Tyr-NH2 1:3 TFA | 86 mg | 13%
Eicosanoyl-gammaGlu-gammaGlu-Ile-Lys[CH3—(OCH2CH2)15—O—(CH2)2—CO]-Pqa-Arg-His-Tyr-Leu-Asn-Trp-Val-Thr-Arg-Gln-(NMe)-Arg-Tyr-NH2 1:3 TFA | 42 mg | 6%
Eicosanoyl-gammaGlu-gammaGlu-Ile-Lys[CH3—(OCH2CH2)23—O—(CH2)2—CO]-Pqa-Arg-His-Tyr-Leu-Asn-Trp-Val-Thr-Arg-Gln-(NMe)-Arg-Tyr-NH2 1:3 TFA | 33 mg | 4%
Palmitoyl-6Ahx-6Ahx-(D)alloIle-Lys[CH3—(OCH2CH2)23—O—(CH2)2—CO]-Pqa-Arg-His-Tyr-Leu-Asn-Trp-Val-Thr-Arg-Gln-(NMe)-Arg-Tyr-NH2 1:3 TFA | 85 mg | 11%
Palmitoyl-6Ahx-6Ahx-Ile-Lys[CH3—(OCH2CH2)11—O—(CH2)2—CO]-Pqa-Arg-His-Tyr-Leu-Asn-Trp-Val-Thr-Arg-Gln-(NMe)-Arg-Tyr-NH2 1:3 TFA | 100 mg | 15%
Palmitoyl-6Ahx-6Ahx-Ile-Lys[CH3—(OCH2CH2)15—O—(CH2)2—CO]-Pqa-Arg-His-Tyr-Leu-Asn-Trp-Val-Thr-Arg-Gln-(NMe)-Arg-Tyr-NH2 1:3 TFA | 54 mg | 8%
Palmitoyl-6Ahx-6Ahx-Ile-Lys[CH3—(OCH2CH2)23—O—(CH2)2—CO]-Pqa-Arg-His-Tyr-Leu-Asn-Trp-Val-Thr-Arg-Gln-(NMe)-Arg-Tyr-NH2 1:3 TFA | 56 mg | 7%
Palmitoyl-6Ahx-Ile-Lys[CH3—(OCH2CH2)23—O—(CH2)2—CO]-Pqa-Arg-His-Tyr-Leu-Asn-Trp-Val-Thr-Arg-Gln-(NMe)-Arg-Tyr-NH2 1:3 TFA | 66 mg | 9%
Palmitoyl-6Ahx-NH—CH2CH2—(OCH2CH2)23—O—(CH2)2—CO-Ile-Lys-Pqa-Arg-His-Tyr-Leu-Asn-Trp-Val-Thr-Arg-Gln-(NMe)-Arg-Tyr-NH2 1:3 TFA | 55 mg | 7%

Experiment: general procedure: Fmoc solid-phase peptide synthesis; Rink Amide Resin; HBTU and DIC preferred, with HOBt
Conditions: whole synthesis, scale 0.25 mmol, 1:3 TFA

Substance | isolated mass | isolated yield
Eicosanoyl-Glu-Glu-Ile-Lys[CH3—(OCH2CH2)23—O—(CH2)2—CO]-Pqa-Arg-His-Tyr-His-Asn-Trp-Val-Thr-Arg-Gln-Arg-Tyr-NH2 1:3 TFA | 490 mg | 70%
